According to PMC7862700:
The list shows a part of the results, in another mix than the full data. At the low end of the ranking the order means little.

Tests used:
Assay in all cases: DAPPL (digital affinity profiling via proximity ligation, sequencing)
Details in all cases: 10 mM Tris-HCl pH 7.5, 50 mM NaCl, 1 mM DTT, 4% glycerol, room temperature, 30 min; GST-TFs on glutathione beads, 16-mer random dsDNA library, 0.1% …; high values mean tight binding; double strand, one strand shown; scale: fold enrichment (6-mer frequency, TF over GST control)
ELK1 = molecular target: T1, ELK1 (UniProt P19419)
T1 sequence: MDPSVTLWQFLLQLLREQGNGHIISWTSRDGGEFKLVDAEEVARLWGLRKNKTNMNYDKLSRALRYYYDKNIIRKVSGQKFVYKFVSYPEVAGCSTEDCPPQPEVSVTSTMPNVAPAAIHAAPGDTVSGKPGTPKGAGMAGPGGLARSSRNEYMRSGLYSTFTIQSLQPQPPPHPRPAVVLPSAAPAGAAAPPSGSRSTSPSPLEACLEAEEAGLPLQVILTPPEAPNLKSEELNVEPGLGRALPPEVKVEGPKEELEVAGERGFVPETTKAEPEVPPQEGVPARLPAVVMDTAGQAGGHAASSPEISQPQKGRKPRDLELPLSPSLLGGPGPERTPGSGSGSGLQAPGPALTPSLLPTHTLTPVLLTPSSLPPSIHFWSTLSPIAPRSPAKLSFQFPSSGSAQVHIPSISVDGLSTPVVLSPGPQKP

ELK3 = molecular target: T2, ELK3 (UniProt P41970)
T2 sequence: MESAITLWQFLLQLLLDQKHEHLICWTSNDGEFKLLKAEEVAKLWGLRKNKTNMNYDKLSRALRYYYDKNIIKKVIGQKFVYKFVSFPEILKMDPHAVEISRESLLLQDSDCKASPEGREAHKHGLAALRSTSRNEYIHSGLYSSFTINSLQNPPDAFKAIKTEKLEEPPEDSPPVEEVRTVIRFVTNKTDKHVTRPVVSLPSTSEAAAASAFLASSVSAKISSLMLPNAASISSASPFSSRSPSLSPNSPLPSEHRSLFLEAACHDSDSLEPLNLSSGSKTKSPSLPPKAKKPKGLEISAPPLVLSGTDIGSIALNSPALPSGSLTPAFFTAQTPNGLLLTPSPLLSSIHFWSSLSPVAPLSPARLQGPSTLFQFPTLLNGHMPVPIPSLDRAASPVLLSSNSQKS

SPIC = molecular target: T3, SPIC (UniProt Q8N5J4)
T3 sequence: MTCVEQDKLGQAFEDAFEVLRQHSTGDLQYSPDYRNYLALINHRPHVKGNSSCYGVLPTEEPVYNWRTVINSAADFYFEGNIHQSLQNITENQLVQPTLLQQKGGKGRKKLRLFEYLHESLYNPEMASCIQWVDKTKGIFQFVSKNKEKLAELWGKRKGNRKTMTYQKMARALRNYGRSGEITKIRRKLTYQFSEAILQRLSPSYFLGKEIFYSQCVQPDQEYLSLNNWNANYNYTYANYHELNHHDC

ETS2 = molecular target: T4, ETS2 (UniProt P15036)
T4 sequence: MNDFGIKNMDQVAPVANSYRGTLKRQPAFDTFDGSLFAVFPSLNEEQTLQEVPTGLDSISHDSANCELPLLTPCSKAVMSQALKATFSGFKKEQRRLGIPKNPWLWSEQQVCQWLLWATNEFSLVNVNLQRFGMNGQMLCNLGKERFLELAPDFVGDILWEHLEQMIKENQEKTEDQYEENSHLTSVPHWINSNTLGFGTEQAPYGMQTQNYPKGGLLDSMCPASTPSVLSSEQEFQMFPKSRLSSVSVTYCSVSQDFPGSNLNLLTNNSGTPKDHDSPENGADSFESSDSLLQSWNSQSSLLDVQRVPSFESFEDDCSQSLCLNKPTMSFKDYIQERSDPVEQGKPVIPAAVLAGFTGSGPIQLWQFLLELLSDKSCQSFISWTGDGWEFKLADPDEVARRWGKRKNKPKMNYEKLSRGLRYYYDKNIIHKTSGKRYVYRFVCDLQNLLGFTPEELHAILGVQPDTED

ETV3 = molecular target: T5, ETV3 (UniProt P41162-2)
T5 sequence: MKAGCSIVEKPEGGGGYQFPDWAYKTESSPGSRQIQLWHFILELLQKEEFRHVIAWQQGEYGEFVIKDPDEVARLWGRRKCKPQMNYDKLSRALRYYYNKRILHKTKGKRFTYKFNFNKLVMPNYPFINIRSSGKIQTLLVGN

Sequence	binding signal (ELK1)	binding signal (ELK3)	binding signal (SPIC)	binding signal (ETS2)	binding signal (ETV3)
TTAGAC	0.829	0.758	0.794	0.763	0.777
CACCGT	0.714	0.663	0.669	0.654	0.631
GCACGT	0.746	0.753	0.76	0.855	0.783
GCATTG	0.841	0.891	0.792	0.877	0.805
GCAGTG	0.556	0.615	0.566	0.536	0.551
CAGGTA	0.848	0.683	0.814	0.739	0.855
CAGGCA	0.742	0.699	0.877	0.713	0.772
ACCGTG	0.235	0.229	0.236	0.23	0.237
GTTCGG	0.572	0.575	0.753	0.588	0.66
TGAGGG	0.7	0.6	0.848	0.661	0.633
GACAAT	0.892	0.825	0.852	0.918	0.917
GTCAGT	0.602	0.586	0.595	0.647	0.652
AGCCGC	0.961	0.971	0.868	0.795	0.919
AAGCGT	0.791	0.92	0.895	0.888	0.837
GTCGTG	0.399	0.348	0.317	0.397	0.422
CAGAGA	0.622	0.619	0.611	0.584	0.612
CACGGG	0.785	0.817	0.782	0.808	0.749
GGTGGC	0.712	0.927	0.734	0.718	0.694
TCGGAC	0.363	0.365	0.357	0.338	0.379
GGCGTC	0.795	0.908	0.755	0.811	0.742

Five entries from above, comma-delimited:
Sequence,binding signal (ELK1),binding signal (ELK3),binding signal (SPIC),binding signal (ETS2),binding signal (ETV3)
CAGAGA,0.622,0.619,0.611,0.584,0.612
CACGGG,0.785,0.817,0.782,0.808,0.749
GGTGGC,0.712,0.927,0.734,0.718,0.694
TCGGAC,0.363,0.365,0.357,0.338,0.379
GGCGTC,0.795,0.908,0.755,0.811,0.742

Next results:

Sequence	binding signal (ELK1)	binding signal (ELK3)	binding signal (SPIC)	binding signal (ETS2)	binding signal (ETV3)
CCATCG	0.842	0.921	0.81	0.898	0.894
ACGAGG	0.753	0.715	0.744	0.825	0.755
CGCAAG	0.826	0.809	0.893	0.899	0.824
GGGTAC	0.889	0.973	0.824	0.881	0.969
CGTGTC	0.813	0.805	0.801	0.76	0.834
CACGTG	0.61	0.623	0.602	0.643	0.577
AGAGCA	0.746	0.785	0.84	0.711	0.75
TCAGGT	0.886	0.79	0.775	0.925	0.862
GTAGCC	0.989	0.962	0.955	0.912	0.948
TCCGTG	0.515	0.507	0.531	0.527	0.513
AGGGGC	0.839	0.814	0.703	0.785	0.741
GAGCCA	0.555	0.651	0.701	0.62	0.583
AGTCTA	0.728	0.692	0.776	0.75	0.708
TGAGTT	0.412	0.423	0.448	0.397	0.403
AGGGCC	0.935	0.902	1.02	0.914	0.972
CGCATA	0.693	0.748	0.681	0.711	0.697
GAACGA	0.776	0.838	0.852	0.792	0.784
CCACGG	0.863	0.942	0.944	0.843	0.878
TTCGGA	0.686	0.747	0.726	0.764	0.755
GTACGG	0.812	0.818	0.756	0.81	0.849

Sequence	binding signal (ELK1)	binding signal (ELK3)	binding signal (SPIC)	binding signal (ETS2)	binding signal (ETV3)
GGATAG	0.752	0.738	0.746	0.746	0.747
GGCGCC	0.666	0.801	0.763	0.689	0.65
GACGAG	0.539	0.504	0.487	0.493	0.515
GGACGA	0.56	0.649	0.617	0.59	0.638
CAAAGG	0.827	0.841	0.824	0.803	0.837
ACCGTA	0.93	0.949	0.816	0.884	0.851
GGCAGA	0.619	0.576	0.752	0.651	0.662
AGCCGG	0.625	0.593	0.559	0.586	0.609
AGAGGG	0.708	0.682	0.685	0.746	0.707
TGGAGG	0.463	0.477	0.484	0.476	0.47
CGTGCC	0.761	0.663	0.942	0.796	0.748
CGGCCA	0.825	0.741	0.726	0.73	0.828
CAAGAG	0.721	0.709	0.857	0.761	0.742
GGTGAC	0.908	0.684	0.772	0.792	0.784
TGTGAG	0.363	0.313	0.367	0.34	0.337
ACCAGA	0.884	0.928	0.922	0.859	0.834
CAGTAA	0.725	0.774	0.702	0.771	0.734
CAATCG	0.853	0.933	1.03	0.914	0.9
ACAGGC	0.701	0.666	0.721	0.645	0.661
TGAGAC	0.558	0.621	0.578	0.58	0.528
